The target in the experiment is YBX1 (UniProt P67809). As to the kind of experiment: co-IP; CoIP assay of ELAVL1 and YBX1; cells, antibodies and which protein was precipitated not told.

By UniProt entry, the sequences of proteins in these tests, tags left out.
UniProt P67809: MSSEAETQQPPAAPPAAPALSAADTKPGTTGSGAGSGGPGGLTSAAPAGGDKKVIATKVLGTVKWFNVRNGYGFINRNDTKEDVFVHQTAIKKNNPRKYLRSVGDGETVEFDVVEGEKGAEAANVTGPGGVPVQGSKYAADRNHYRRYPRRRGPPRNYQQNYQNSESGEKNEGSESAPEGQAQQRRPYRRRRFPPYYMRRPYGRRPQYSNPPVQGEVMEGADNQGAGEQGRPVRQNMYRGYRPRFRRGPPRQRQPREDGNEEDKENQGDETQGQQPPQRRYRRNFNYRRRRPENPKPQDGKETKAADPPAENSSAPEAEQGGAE
UniProt Q15717: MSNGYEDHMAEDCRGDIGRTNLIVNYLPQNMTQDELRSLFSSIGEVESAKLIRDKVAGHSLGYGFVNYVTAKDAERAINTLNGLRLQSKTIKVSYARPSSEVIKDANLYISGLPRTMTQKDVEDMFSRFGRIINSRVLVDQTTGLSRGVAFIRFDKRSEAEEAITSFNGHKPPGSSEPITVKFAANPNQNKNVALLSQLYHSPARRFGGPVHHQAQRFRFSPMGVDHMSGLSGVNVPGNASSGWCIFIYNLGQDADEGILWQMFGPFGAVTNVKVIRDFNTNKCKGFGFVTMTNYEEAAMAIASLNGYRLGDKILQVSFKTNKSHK

No constants are given. Whether binding was seen depends on the method and setting. In cells and extracts the contact can be indirect. Some results given as binding are weak or reduced against the parent protein; the word gives no strength.

As for ELAVL1 (from UniProt Q15717 1-326), the binding entry was “binds”.
